For at least one compound, name, drawing or mass did not settle the structure.
Tested on: HUVEC
Experiment: Cell survival in serum-free medium (MTS)
Assay type: cell-based, human
Set-up: dose or concentration left out as unconfirmed
Details: Day 2

O=c1cc(N2CCOCC2)oc2c(-c3ccccc3)cccc12 [LY294002] was tested, and the “effect of inhibitor on cell survival of cells over-expressing SK” value was “abolished” and the “effect of inhibitor on cell survival of control cells” value (EV cells) was “significantly reduced cell survival”.
